According to patent publication US12233106B2, “C-type natriuretic peptide variants to treat skeletal dysplasia in children” (priority 2021, dated 2025):
Where “and” joins values, the source holds several entries; their conditions need not be identical. Identical values can stand only once. Not every detail of the peptide structures is certain; ends, links or a residue may be inferred.

System: ACH children 0 to 5 years old
Assay: Phase 2 Study 111-206/208: growth (height Z-score, AGV, body proportion, height) in children with achondroplasia
Type: in vivo, human
Details: for Annualized Growth Velocity at Week 52, Difference in LSM (vosoritide minus placebo) / Height Z-score at Week 52, Difference in LSM (vosoritide minus placebo) / Annualized Growth Velocity at Week 52, LSM change from baseline / Height Z-score at Week 52, LSM change from baseline: ANCOVA
[1] = FAS (randomized), Cohort 1, vosoritide N=15
[2] = FAS (randomized), Cohort 2, vosoritide N=8
[3] = FAS (randomized), Cohort 3, 10 imputed datasets
[4] = FAS (randomized), Cohort 3, vosoritide N=9, 10 imputed datasets
[5] = FAS (randomized), Overall, vosoritide N=32
[6] = FAS, Cohort 3, 10 imputed datasets
[7] = FAS, Cohort 3, vosoritide N=12, 10 imputed datasets
[8] = Cohort 1 sentinels (N=4), 15 μg/kg/day SC, Week 26
[9] = Cohort 1 sentinels (N=4), 15 μg/kg/day SC, Week 52
[10] = Cohort 1 sentinels, 24 to <60 months, 15 μg/kg/day SC, Baseline (before treatment)
[11] = Cohort 1 sentinels, 24 to <60 months, 15 μg/kg/day SC, Week 26
[12] = Cohort 1 sentinels, 24 to <60 months, 15 μg/kg/day SC, Week 52
[13] = Cohort 1 sentinels, 24 to <60 months, 15 μg/kg/day SC, Week 78
[14] = Cohort 1 sentinels, 24 to <60 months, 15 μg/kg/day SC, Week 104, n=3
[15] = Cohort 1 sentinels, Week 130 (N=4)
[16] = Cohort 2 sentinels, 6 to <24 months, 15 then 30 μg/kg/day SC, Baseline (before treatment)
[17] = Cohort 2 sentinels, 6 to <24 months, 15 then 30 μg/kg/day SC, Week 26
[18] = Cohort 2 sentinels, 6 to <24 months, 15 then 30 μg/kg/day SC, Week 52

CC[C@H](C)[C@@H]1NC(=O)[C@H](CCCNC(=N)N)NC(=O)[C@H](CC(=O)O)NC(=O)[C@H](CC(C)C)NC(=O)[C@H](CCCCN)NC(=O)[C@H](CC(C)C)NC(=O)CNC(=O)[C@H](Cc2ccccc2)NC(=O)[C@@H](NC(=O)CNC(=O)[C@H](CCCCN)NC(=O)[C@H](CO)NC(=O)[C@H](CC(C)C)NC(=O)CNC(=O)[C@H](CCCCN)NC(=O)[C@H](CCCCN)NC(=O)[C@H](CC(N)=O)NC(=O)[C@H](C)NC(=O)CNC(=O)[C@H](CCCCN)NC(=O)[C@H](Cc2ccc(O)cc2)NC(=O)[C@H](CCCCN)NC(=O)[C@H](CCCNC(=N)N)NC(=O)[C@H](C)NC(=O)[C@H](CC(N)=O)NC(=O)[C@@H]2CCCN2C(=O)[C@H](Cc2c[nH]cn2)NC(=O)[C@H](CCC(=O)O)NC(=O)[C@H](CCC(N)=O)NC(=O)CNC(=O)[C@@H]2CCCN2)CSSC[C@@H](C(=O)O)NC(=O)CNC(=O)[C@H](CC(C)C)NC(=O)CNC(=O)[C@H](CO)NC(=O)[C@H](CCSC)NC(=O)[C@H](CO)NC(=O)CNC1=O [vosoritide]
Annualized Growth Velocity at Week 52, Difference in LSM (vosoritide minus placebo) (FAS (randomized), Cohort 1): 1.10
Height Z-score at Week 52, Difference in LSM (vosoritide minus placebo) (FAS (randomized), Cohort 1): 0.33
Annualized Growth Velocity at Week 52, LSM change from baseline [1]: 1.99
Height Z-score at Week 52, LSM change from baseline [1]: 0.27
Annualized Growth Velocity at Week 52, Difference in LSM (vosoritide minus placebo) (FAS (randomized), Cohort 2): 0.63
Height Z-score at Week 52, Difference in LSM (vosoritide minus placebo) (FAS (randomized), Cohort 2): 0.21
Annualized Growth Velocity at Week 52, LSM change from baseline [2]: −2.36
Height Z-score at Week 52, LSM change from baseline [2]: 0.02
Annualized Growth Velocity at Week 52, Difference in LSM (vosoritide minus placebo) [3]: 0.79
Height Z-score at Week 52, Difference in LSM (vosoritide minus placebo) [3]: 0.23
Annualized Growth Velocity at Week 52, LSM change from baseline [4]: −9.34
Height Z-score at Week 52, LSM change from baseline [4]: −0.68
Annualized Growth Velocity at Week 52, Difference in LSM (vosoritide minus placebo) (FAS (randomized), Overall): 0.78
Height Z-score at Week 52, Difference in LSM (vosoritide minus placebo) (FAS (randomized), Overall): 0.25
Annualized Growth Velocity at Week 52, LSM change from baseline [5]: −2.17
Height Z-score at Week 52, LSM change from baseline [5]: −0.06
Annualized Growth Velocity at Week 52, Difference in LSM (vosoritide minus placebo) (FAS, Cohort 1): 1.00
Height Z-score at Week 52, Difference in LSM (vosoritide minus placebo) (FAS, Cohort 1): 0.29
Annualized Growth Velocity at Week 52, LSM change from baseline (FAS, Cohort 1, vosoritide N=19): 1.78
Height Z-score at Week 52, LSM change from baseline (FAS, Cohort 1, vosoritide N=19): 0.26
Annualized Growth Velocity at Week 52, Difference in LSM (vosoritide minus placebo) (FAS, Cohort 2): 0.91
Height Z-score at Week 52, Difference in LSM (vosoritide minus placebo) (FAS, Cohort 2): 0.41
Annualized Growth Velocity at Week 52, LSM change from baseline (FAS, Cohort 2, vosoritide N=12): −2.23
Height Z-score at Week 52, LSM change from baseline (FAS, Cohort 2, vosoritide N=12): 0.24
Annualized Growth Velocity at Week 52, Difference in LSM (vosoritide minus placebo) [6]: 1.04
Height Z-score at Week 52, Difference in LSM (vosoritide minus placebo) [6]: 0.27
Annualized Growth Velocity at Week 52, LSM change from baseline [7]: −9.79
Height Z-score at Week 52, LSM change from baseline [7]: −0.64
Annualized Growth Velocity at Week 52, Difference in LSM (vosoritide minus placebo) (FAS, Overall): 0.92
Height Z-score at Week 52, Difference in LSM (vosoritide minus placebo) (FAS, Overall): 0.30
Annualized Growth Velocity at Week 52, LSM change from baseline (FAS, Overall, vosoritide N=43): −2.41
Height Z-score at Week 52, LSM change from baseline (FAS, Overall, vosoritide N=43): 0.01
Improvement in height Z-score, individual subject (Cohort 1 sentinel, Week 78): +0.27 SDS
Change in sitting height from baseline, mean (SD) [8]: 1.98 (1.12) cm
Change in standing height from baseline, mean (SD) [8]: 3.38 (0.82) cm
Change in sitting height from baseline, mean (SD) [9]: 4.69 (0.43) cm
Change in standing height from baseline, mean (SD) [9]: 6.78 (1.12) cm
Increase in standing height from baseline, mean (SD) (Cohort 1 sentinels, 15 μg/kg/day SC, Week 104): 12.91 (1.61) cm
Increase in standing height from baseline, mean (SD) (Cohort 1 sentinels, 15 μg/kg/day SC, Week 130): 15.28 (1.39) cm
AGV [10]: 6.21 cm/year and 6.21 (1.73) cm/year and 6.21 ± 1.73 (n = 4) cm/year
Height Z-score [10]: −4.51 (0.33) and −4.51 ± 0.33 (n = 4)
Upper to lower body segment ratio [10]: 2.25 ± 0.36 (n = 4)
AGV [11]: 6.90 ± 1.64 (n = 4) cm/year
AGV, change from baseline [11]: 0.69 (1.70) cm/year and 0.69 ± 1.70 (n = 4) cm/year
Height Z-score [11]: −4.35 ± 0.23 (n = 4)
Upper to lower body segment ratio [11]: 2.21 ± 0.35 (n = 4)
Upper to lower body segment ratio, change from baseline [11]: −0.04 (0.06) and −0.04 ± 0.06 (n = 4)
AGV [12]: 6.78 (1.00) cm/year and 6.78 ± 1.00 (n = 4) cm/year
AGV, change from baseline [12]: 0.57 (0.91) cm/year and 0.57 ± 0.91 (n = 4) cm/year
Height Z-score [12]: −4.16 ± 0.47 (n = 4)
Upper to lower body segment ratio [12]: 2.23 ± 0.24 (n = 4)
Upper to lower body segment ratio, change from baseline [12]: −0.02 (0.12) and −0.02 ± 0.12 (n = 4)
AGV [13]: 6.48 ± 0.90 (n = 4) cm/year
AGV, change from baseline [13]: 0.27 ± 1.13 (n = 4) cm/year
Height Z-score [13]: −4.06 ± 0.50 (n = 4)
Height Z-score, change from baseline [13]: 0.45 ± 0.29 (n = 4)
Upper to lower body segment ratio [13]: 2.15 ± 0.29 (n = 4)
Upper to lower body segment ratio, change from baseline [13]: −0.11 ± 0.08 (n = 4)
AGV [14]: 6.45 ± 0.70 (n = 3) cm/year
AGV, change from baseline [14]: −0.27 ± 1.09 (n = 3) cm/year
Height Z-score [14]: −3.77 ± 0.41 (n = 3)
Height Z-score, change from baseline [14]: 0.62 ± 0.36 (n = 3)
Upper to lower body segment ratio [14]: 2.19 ± 0.22 (n = 3)
Upper to lower body segment ratio, change from baseline [14]: −0.19 (0.10) and −0.19 ± 0.10 (n = 3)
Height Z-score, mean (SD) change from baseline (Cohort 1 sentinels, Week 52 (N=4)): +0.34 (0.27) SDS
Improvement in height Z-score, individual subjects (Cohort 1 sentinels, Week 104): +0.77 SDS and +0.86 SDS and +0.20 SDS
Height Z-score, mean (SD) change from baseline (Cohort 1 sentinels, Week 104 (N=3)): +0.62 (0.36) SDS
Height Z-score, mean (SD) change from baseline [15]: +0.49 (0.34) SDS
Upper to lower body segment ratio, mean (SD) change from baseline [15]: −0.19 (0.14)
AGV, mean (SD) (Cohort 1 sentinels, second year of treatment in 111-208): 5.85 (0.39) cm/year
Change in sitting height from baseline, mean (SD) (Cohort 2, 2 sentinel subjects, Week 26): 3.70 (0.19) cm
AGV [16]: 11.93 cm/year and 11.93 (1.32) cm/year and 11.93 ± 1.32 (n = 4) cm/year
Height Z-score [16]: −4.72 (0.53) and −4.72 ± 0.53 (n = 4)
Upper to lower body segment ratio [16]: 2.56 ± 0.25 (n = 4)
AGV [17]: 10.40 ± 2.15 (n = 4) cm/year
AGV, change from baseline [17]: −1.53 ± 3.03 (n = 4) cm/year
Height Z-score [17]: −4.29 ± 0.65 (n = 4)
Upper to lower body segment ratio [17]: 2.49 ± 0.22 (n = 4)
Upper to lower body segment ratio, change from baseline [17]: −0.07 (0.05) and −0.07 ± 0.05 (n = 4)
AGV [18]: 9.17 (1.06) cm/year and 9.17 ± 1.06 (n = 4) cm/year
AGV, change from baseline [18]: −2.75 ± 1.65 (n = 4) cm/year
